Experimental data published in PubChem BioAssay AID1259415 (National Center for Advancing Translational Sciences (NCATS), 2018).
Out of some 410,000 compounds screened, about 18,000 (4.4%) were called active. The shares of active, inactive and inconclusive entries below differ from those in the screen. Cut-off read from the data, not from the text of the source: active = activity change below about -60%; inconclusive = no clear call, values can overlap the other calls; inactive = above about -39%.

Experiment: qHTS Assay for inhibitors of the human cytomegalovirus (HCMV)
Conditions: HFF cells, HCMV-luciferase reporter, 72 h; at 57.5 µM; stronger effect = lower value
How it was run: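 Screen run at 2 compound doses on HFFs infected with reporter HCMV, MOI 1 PFU/cell. Luciferase activity from cell lysates at 72 h post infection gave inhibition relative to buffer-only and Salinomycin wells.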
% is set by controls: 0 for no effect and ±100 for the full control effect.

SMILES	activity change, negative = inhibition
COc1cc2c(cc1OC)C(C)N(C(=O)c1cccc([N+](=O)[O-])c1)CC2 (stereo not drawn)	active: -74.2%
COc1ccc(-c2nnc(SCC(=O)c3cccs3)n2-c2ccc(Cl)cc2)cc1	inconclusive: -41.7%
CCN(C(=O)COC(=O)CSc1ccccc1)c1c(N)n(Cc2ccccc2)c(=O)[nH]c1=O	inactive: -6.76%
O=[N+]([O-])c1ccc(NN=Cc2ccccc2O)nc1	active: -97.6%
NC(=O)Cn1cc(/C=N\NS(=O)(=O)c2cccc([N+](=O)[O-])c2)c2ccccc21	inconclusive: -41.9%
CC(NC(=O)CN1C(=O)NC(C)(c2cccc3ccccc23)C1=O)c1ccccc1 (stereo not drawn)	inactive: -10.9%
CN1CCN(C(=S)C(=O)Nc2ccc(Br)cc2)CC1	inactive: -1.74%
COc1ccc(-c2[nH]nc3nc(N4CCN(C(=O)c5ccoc5)CC4)cc(C(F)(F)F)c23)cc1	active: -77.2%
COc1ccc(-n2nc3c(N4CCCC(C(=O)NCc5ccccc5C)C4)nnc(C)c3c2C)cc1 (stereo not drawn)	active: -99.2%
Cc1c(/C(O)=C2\C(=O)C(=O)N(CCCN(C)C)C2c2cccs2)cnn1-c1ccccc1 (stereo not drawn)	inconclusive: -44%
CCOC(=O)C1C(=O)C=C(c2ccc(C)cc2)CC1c1cccc([N+](=O)[O-])c1 (stereo not drawn)	inconclusive: -53.7%
Cc1ccccc1NC(=O)CN1C(=O)C2C3CC(C(Br)C3Br)C2C1=O (stereo not drawn)	inconclusive: -47%
COC(=O)c1ccc(NC(=O)N(c2ccccc2)c2ccccc2)cc1	inconclusive: -50%
CCCCC(=O)Nc1cc(C)c(NC(=O)c2cccs2)cn1	inactive: -9.98%
COc1ccc(S(=O)(=O)N2CCN(C(=O)c3cc(-c4ccc(Br)cc4)n[nH]3)CC2)cc1OC	inconclusive: 0%
CC(=O)N1c2ccc(S(=O)(=O)NCC3CCC(C(=O)Nc4cccc(F)c4)CC3)cc2CC1C (stereo not drawn)	active: -76.7%
O=C(Nc1ccc(Oc2ccccc2)nc1)C1CCN(Cc2cccc(F)c2)CC1	active: -68.8%
CCOc1ccc(-c2n[nH]c3c2C(c2cccs2)N(c2ccc(Br)cc2)C3=O)cc1 (stereo not drawn)	active: -98.6%
CCCOC(=O)Nc1nc(-c2ccc(C)cc2)c(C)s1	inconclusive: -46.6%
CC1=C(C#N)c2nc(N)c(C#N)c(C)c2/C1=C\c1ccc(-c2ccccc2C(=O)O)o1	inconclusive: -40.6%
S=C(Nc1ccc(Br)cc1Cl)NC1CCN(Cc2ccccc2)CC1	active: -84.5%
CCNC(=O)C1(C)CCN(C(=O)c2cccc(C(F)(F)F)c2)C1 (stereo not drawn)	inactive: -0.0936%
N#C/C(=C(/O)c1ccc2c(c1)OCO2)c1nc2cc(C(F)(F)F)ccc2s1	inconclusive: -42.4%

Random excerpt: 2 compounds from above
SMILES	activity change, negative = inhibition
Cc1ccccc1NC(=O)CN1C(=O)C2C3CC(C(Br)C3Br)C2C1=O (stereo not drawn)	inconclusive: -47%
Cc1c(/C(O)=C2\C(=O)C(=O)N(CCCN(C)C)C2c2cccs2)cnn1-c1ccccc1 (stereo not drawn)	inconclusive: -44%
